Assay results published in patent US20250145665A1, “MACROCYCLIC PEPTIDES USEFUL AS MODULATORS OF TNF ALPHA” (Bristol-Myers Squibb Company, priority 2023, published 2025).
Some entries share one result that the patent states for a list of compounds. Positions of bridges follow the written chain, without caps; N, C: chain ends. Non-standard residues stand in square brackets, D forms with d. Residues, ends and D or L forms follow the SMILES beside them. Ala(morpholin-4-yl) = N[C@@H](CN1CCOCC1)C(=O)O; Bip = N[C@@H](Cc1ccc(-c2ccccc2)cc1)C(=O)O; Pro(cis-4-F) = O=C(O)[C@@H]1C[C@H](F)CN1; Val(3-OH) = CC(C)(O)[C@H](N)C(=O)O; Hyp = O=C(O)[C@@H]1C[C@@H](O)CN1; Tic = O=C(O)[C@@H]1Cc2ccccc2CN1; Pip = O=C(O)[C@@H]1CCCCN1; Aze = O=C(O)[C@@H]1CCN1; Sar = CNCC(=O)O

The chains behind the UniProt entries cited, without tags or fusion partners. Residues count along the entry.
UniProt P01375, 77-233 limits assumed: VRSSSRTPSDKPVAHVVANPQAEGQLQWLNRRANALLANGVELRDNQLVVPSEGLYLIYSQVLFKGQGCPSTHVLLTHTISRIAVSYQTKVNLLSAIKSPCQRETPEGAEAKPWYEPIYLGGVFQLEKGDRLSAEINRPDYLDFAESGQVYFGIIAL

Target: TNFα (Homo sapiens, UniProt P01375)
Test: TNF-Induced HEK-Blue Assay
Type: cell-based
Details: summary statement for all examples; read-out: IC50 values measured in the TNF induced HEK-Blue assay

IC50, ≤ 25 µM:
CC(C)C[C@@H]1NC(=O)[C@H](CCCNC(=N)N)NC(=O)[C@H](C(C)C)NC(=O)[C@@H]2C[C@@H](O)CN2C(=O)[C@H](C(C)C)NC(=O)[C@H](CCCNC(=N)N)NC(=O)[C@H](CC(=O)O)NC(=O)[C@@H]2CCCN2C(=O)CN(C)C(=O)[C@H](Cc2ccc(-c3ccccc3)cc2)NC(=O)[C@H](Cc2ccc(-c3ccccc3)cc2)NC(=O)[C@H](Cc2ccccc2)NC(=O)CSC[C@@H](C(=O)NCC(N)=O)NC1=O [Example 39] ({CH2CO}-F[Bip][Bip][Sar]PDRV[Hyp]VRLCG-NH2; thioether N-13)
CC(C)C[C@@H]1NC(=O)[C@H](CCCNC(=N)N)NC(=O)[C@H](C(C)C)NC(=O)[C@@H]2Cc3ccccc3CN2C(=O)[C@H](C(C)C)NC(=O)[C@H](CCCNC(=N)N)NC(=O)[C@H](CC(=O)O)NC(=O)[C@@H]2CCCN2C(=O)CN(C)C(=O)[C@H](Cc2ccc(-c3ccccc3)cc2)NC(=O)[C@H](Cc2ccc(-c3ccccc3)cc2)NC(=O)[C@H](Cc2ccccc2)NC(=O)CSC[C@@H](C(=O)NCC(N)=O)NC1=O [Example 40] ({CH2CO}-F[Bip][Bip][Sar]PDRV[Tic]VRLCG-NH2; thioether N-13)
CC(C)C[C@@H]1NC(=O)[C@H](CCCNC(=N)N)NC(=O)[C@H](C(C)C)NC(=O)[C@@H]2CCCCN2C(=O)[C@H](C(C)C)NC(=O)[C@H](CCCNC(=N)N)NC(=O)[C@H](CC(=O)O)NC(=O)[C@@H]2CCCN2C(=O)CN(C)C(=O)[C@H](Cc2ccc(-c3ccccc3)cc2)NC(=O)[C@H](Cc2ccc(-c3ccccc3)cc2)NC(=O)[C@H](Cc2ccccc2)NC(=O)CSC[C@@H](C(=O)NCC(N)=O)NC1=O [Example 41] ({CH2CO}-F[Bip][Bip][Sar]PDRV[Pip]VRLCG-NH2; thioether N-13)
CC(C)C[C@@H]1NC(=O)[C@H](CCCNC(=N)N)NC(=O)[C@H](C(C)C)NC(=O)[C@@H]2CCN2C(=O)[C@H](C(C)C)NC(=O)[C@H](CCCNC(=N)N)NC(=O)[C@H](CC(=O)O)NC(=O)[C@@H]2CCCN2C(=O)CN(C)C(=O)[C@H](Cc2ccc(-c3ccccc3)cc2)NC(=O)[C@H](Cc2ccc(-c3ccccc3)cc2)NC(=O)[C@H](Cc2ccccc2)NC(=O)CSC[C@@H](C(=O)NCC(N)=O)NC1=O [Example 42] ({CH2CO}-F[Bip][Bip][Sar]PDRV[Aze]VRLCG-NH2; thioether N-13)
CC(C)C[C@@H]1NC(=O)[C@H](CCCNC(=N)N)NC(=O)[C@H](C(C)C)NC(=O)[C@@H]2C[C@H](F)CN2C(=O)[C@H](C(C)C)NC(=O)[C@H](CCCNC(=N)N)NC(=O)[C@H](CC(=O)O)NC(=O)[C@@H]2CCCN2C(=O)CN(C)C(=O)[C@H](Cc2ccc(-c3ccccc3)cc2)NC(=O)[C@H](Cc2ccc(-c3ccccc3)cc2)NC(=O)[C@H](Cc2ccccc2)NC(=O)CSC[C@@H](C(=O)NCC(N)=O)NC1=O [Example 43] ({CH2CO}-F[Bip][Bip][Sar]PDRV[Pro(cis-4-F)]VRLCG-NH2; thioether N-13)
CC(C)C[C@@H]1NC(=O)[C@H](CCCNC(=N)N)NC(=O)[C@H](C(C)C)NC(=O)[C@@H]2CCCN2C(=O)[C@H](C(C)C)NC(=O)[C@H](CCCNC(=N)N)NC(=O)[C@H](CC(=O)O)NC(=O)[C@@H]2C[C@@H](O)CN2C(=O)CN(C)C(=O)[C@H](Cc2ccc(-c3ccccc3)cc2)NC(=O)[C@H](Cc2ccc(-c3ccccc3)cc2)NC(=O)[C@H](Cc2ccccc2)NC(=O)CSC[C@@H](C(=O)NCC(N)=O)NC1=O [Example 44] ({CH2CO}-F[Bip][Bip][Sar][Hyp]DRVPVRLCG-NH2; thioether N-13)
CC(C)C[C@@H]1NC(=O)[C@H](CCCNC(=N)N)NC(=O)[C@H](C(C)C)NC(=O)[C@@H]2CCCN2C(=O)[C@H](C(C)C)NC(=O)[C@H](CCCNC(=N)N)NC(=O)[C@H](CC(=O)O)NC(=O)[C@@H]2Cc3ccccc3CN2C(=O)CN(C)C(=O)[C@H](Cc2ccc(-c3ccccc3)cc2)NC(=O)[C@H](Cc2ccc(-c3ccccc3)cc2)NC(=O)[C@H](Cc2ccccc2)NC(=O)CSC[C@@H](C(=O)NCC(N)=O)NC1=O [Example 45] ({CH2CO}-F[Bip][Bip][Sar][Tic]DRVPVRLCG-NH2; thioether N-13)
CC(C)C[C@@H]1NC(=O)[C@H](CCCNC(=N)N)NC(=O)[C@H](C(C)C)NC(=O)[C@@H]2CCCN2C(=O)[C@H](C(C)C)NC(=O)[C@H](CCCNC(=N)N)NC(=O)[C@H](CC(=O)O)NC(=O)[C@@H]2CCN2C(=O)CN(C)C(=O)[C@H](Cc2ccc(-c3ccccc3)cc2)NC(=O)[C@H](Cc2ccc(-c3ccccc3)cc2)NC(=O)[C@H](Cc2ccccc2)NC(=O)CSC[C@@H](C(=O)NCC(N)=O)NC1=O [Example 46] ({CH2CO}-F[Bip][Bip][Sar][Aze]DRVPVRLCG-NH2; thioether N-13)
CC(C)C[C@@H]1NC(=O)[C@H](CCCNC(=N)N)NC(=O)[C@H](C(C)C)NC(=O)[C@@H]2CCCN2C(=O)[C@H](C(C)C)NC(=O)[C@H](CCCNC(=N)N)NC(=O)[C@H](CC(=O)O)NC(=O)[C@H](Cc2ccc(O)cc2)NC(=O)CN(C)C(=O)[C@H](Cc2ccc(-c3ccccc3)cc2)NC(=O)[C@H](Cc2ccc(-c3ccccc3)cc2)NC(=O)[C@H](CN2CCOCC2)NC(=O)CSC[C@@H](C(=O)NCC(N)=O)NC1=O [Example 47] ({CH2CO}-[Ala(morpholin-4-yl)][Bip][Bip][Sar]YDRVPVRLCG-NH2; thioether N-13)
CC(C)C[C@@H]1NC(=O)[C@H](Cc2ccc(O)cc2)NC(=O)[C@H](C(C)C)NC(=O)[C@@H]2CCCN2C(=O)[C@H](C(C)C)NC(=O)[C@H](CCCNC(=N)N)NC(=O)[C@H](CC(=O)O)NC(=O)[C@H](Cc2ccc(O)cc2)NC(=O)CN(C)C(=O)[C@H](Cc2ccc(-c3ccccc3)cc2)NC(=O)[C@H](Cc2ccc(-c3ccccc3)cc2)NC(=O)[C@H](CN2CCOCC2)NC(=O)CSC[C@@H](C(=O)NCC(N)=O)NC1=O [Example 48] ({CH2CO}-[Ala(morpholin-4-yl)][Bip][Bip][Sar]YDRVPVYLCG-NH2; thioether N-13)
CC(C)C[C@@H]1NC(=O)[C@H](Cc2ccc(O)cc2)NC(=O)[C@H](C(C)C)NC(=O)[C@@H]2CCCN2C(=O)[C@H](C(C)C)NC(=O)[C@H](CCCNC(=N)N)NC(=O)[C@H](CC(=O)O)NC(=O)[C@@H]2CCCN2C(=O)CN(C)C(=O)[C@H](Cc2ccc(-c3ccccc3)cc2)NC(=O)[C@H](Cc2ccc(-c3ccccc3)cc2)NC(=O)[C@H](CN2CCOCC2)NC(=O)CSC[C@@H](C(=O)NCC(N)=O)NC1=O [Example 49] ({CH2CO}-[Ala(morpholin-4-yl)][Bip][Bip][Sar]PDRVPVYLCG-NH2; thioether N-13)
CC(C)C[C@@H]1NC(=O)[C@H](Cc2ccc(O)cc2)NC(=O)[C@H](C(C)C)NC(=O)[C@@H]2CCCN2C(=O)[C@H](C(C)C)NC(=O)[C@H](CCCNC(=N)N)NC(=O)[C@H](CC(=O)O)NC(=O)[C@H](Cc2ccc(O)cc2)NC(=O)CN(C)C(=O)[C@H](Cc2ccc(-c3ccccc3)cc2)NC(=O)[C@H](Cc2ccc(-c3ccccc3)cc2)NC(=O)[C@H](C(C)(C)O)NC(=O)CSC[C@@H](C(=O)NCC(N)=O)NC1=O [Example 50] ({CH2CO}-[Val(3-OH)][Bip][Bip][Sar]YDRVPVYLCG-NH2; thioether N-13)
